# At least one compound was matched to its structure with a doubt left.
# Legend:
# [1] = system: ARID1A-deficient bladder cancer cell lines (HT1376 and KU1919) versus ARID1A-proficient bladder cancer cell lines (HT1197 and UMUC11); assay: Cell viability (CellTiter-Glo 2.0) of human bladder cancer cell lines treated with HHT; assay type: cell-based; settings: HHT 1 and 10 μM, 24 hours
# [2] = system: Arid1a^fl/fl tumor organoids; assay: Cell viability assay (CellTiter-Glo 2.0) of tumor organoids treated with HHT; assay type: cell-based, mouse; settings: Arid1a^fl/fl BBN-induced cancer organoids; 100 nM or 1 μM HHT, 48 hours
# PDX3 (ARID1A high) = assay: Pre-clinical trial of patient derived xenograft treated with HHT; assay type: in vivo, mouse; settings: ARID1A high model; HHT 0.7 mg/kg twice daily by oral gavage
# [3] = system: WT bladder cancer organoid; assay: Cell viability assay (CellTiter-Glo 2.0) of tumor organoids treated with HHT; assay type: cell-based, mouse; settings: isogenic WT BBN-induced cancer organoids; same HHT concentrations (100 nM or 1 μM), 48 hours
# PDX1 (ARID1A low) = assay: Pre-clinical trial of patient derived xenograft treated with HHT; assay type: in vivo, mouse; settings: ARID1A-deficient PDX, not seen in proficient PDXs; HHT versus vehicle
# Description: Arid1a^LoxP/LoxP (Jackson Laboratory), ROSA-LSL-Yfp^KI/KI (Jackson Laboratory), and UBC-Cre^ERT2 (Jackson Laboratory). eEF2K^−/− animals were kindly provided by Alexey G. Ryazanov (Rutgers University). UBC-Cre^ERT2;ROSA-LSL-Yfp^KI/KI;Arid1a^LoxP/LoxP animals (mixed background) were bred to Eef2k^−/− animals (C57BL/6) for one generation to produce progeny heterozygous at all loci (ROSA-LSL-Yfp^KI/+;Arid1a^LoxP/+; eEF2K^+/−) with or without UBC-Cre^ERT2. Heterozygous animals without UBC-Cre^ERT2 were backcrossed once more to ROSA-LSL-Yfp^KI/KI;Arid1a^LoxP/LoxP animals to reintroduce homozygosity at the ARID1A and ROSA-LSL-Yfp, while maintaining heterozygosity at the Eef2k locus (ROSA-LSL-Yfp^KI/KI; Arid1a^LoxP/LoxP; Eef2K^+/−; with and without UBC-Cre^ERT2). […] For survival studies, the body weight of the mouse was recorded and monitored every two days for the duration of the survival trial.
# Tumor pieces (1×1×1 mm) were implanted into the flank of 4-6 weeks old NOD-SCID γ IL-2 mice. Xenografts were measured every 2 days and tumor volume was calculated using the formula (L×W×W)/2, where L is the length of the tumor and W its width. […]
# [4] = system: SWI/SNF defective cancer cell lines and rhabdoid tumors; settings: stated as previously shown; cited from earlier work
compound,measurement,setting,value
"COC(=O)C[C@](O)(CCCC(C)(C)O)C(=O)O[C@@H]1C(OC)=C[C@]23CCCN2CCc2cc4c(cc2[C@H]13)OCO4 [HHT, homoharringtonine]",sensitivity to HHT of ARID1A null cell lines compared to cell lines that expressed ARID1A,[1],significantly more sensitive
same,sensitivity of tumor organoid growth / cell viability to HHT,[2],sensitive
same,tumor growth response to HHT,PDX3 (ARID1A high),completely insensitive
same,impact of HHT on organoid growth / cell viability,[3],minimal impact
same,apoptosis (percent CC3 positive cells),PDX1 (ARID1A low),increased apoptosis
same,cell proliferation (percent Ki67 positive cells),PDX1 (ARID1A low),decreased cell proliferation
same,sensitivity to HHT,[4],sensitive
